Measurements published in publication PMC6052025.
Results are given in words; binding and its absence hold for the method and conditions named. Binding seen in cells or lysates may run through a third protein. Some results given as binding are weak or reduced against the parent protein; the word gives no strength.

Protein sequences, listed by entry. Tags and fused reporters are not part of them.
UniProt Q0ZGT2: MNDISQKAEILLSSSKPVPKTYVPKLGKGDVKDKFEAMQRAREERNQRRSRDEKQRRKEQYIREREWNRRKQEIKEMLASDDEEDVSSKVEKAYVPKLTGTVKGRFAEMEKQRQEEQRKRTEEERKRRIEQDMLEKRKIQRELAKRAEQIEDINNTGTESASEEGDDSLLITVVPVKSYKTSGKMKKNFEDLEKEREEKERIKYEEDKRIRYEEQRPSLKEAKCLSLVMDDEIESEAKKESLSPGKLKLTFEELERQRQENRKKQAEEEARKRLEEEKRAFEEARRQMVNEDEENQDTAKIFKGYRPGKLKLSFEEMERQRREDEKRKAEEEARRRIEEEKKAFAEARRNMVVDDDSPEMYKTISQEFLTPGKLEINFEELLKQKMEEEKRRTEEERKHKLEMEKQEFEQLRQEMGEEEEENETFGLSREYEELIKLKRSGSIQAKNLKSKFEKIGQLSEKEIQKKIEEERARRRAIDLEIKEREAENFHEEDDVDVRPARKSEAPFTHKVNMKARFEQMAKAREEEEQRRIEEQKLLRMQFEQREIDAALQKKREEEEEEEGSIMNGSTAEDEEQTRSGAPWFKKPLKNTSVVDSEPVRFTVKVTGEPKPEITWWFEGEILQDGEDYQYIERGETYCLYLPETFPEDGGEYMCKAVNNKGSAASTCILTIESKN

T1: B-cell receptor-associated protein 31 (BAP31) (human (endogenous in HeLa)) (UniProt P51572)
T1 sequence: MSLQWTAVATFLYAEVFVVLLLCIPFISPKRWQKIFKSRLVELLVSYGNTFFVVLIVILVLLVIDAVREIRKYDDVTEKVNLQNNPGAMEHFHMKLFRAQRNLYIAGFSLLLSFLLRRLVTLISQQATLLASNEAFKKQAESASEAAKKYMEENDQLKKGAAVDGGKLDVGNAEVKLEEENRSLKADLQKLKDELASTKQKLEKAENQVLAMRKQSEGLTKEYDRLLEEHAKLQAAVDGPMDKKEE

B1: Drebrin (protein, UniProt Q16643 1-649)
chain: MAGVSFSGHRLELLAAYEEVIREESAADWALYTYEDGSDDLKLAASGEGGLQELSGHFENQKVMYGFCSVKDSQAALPKYVLINWVGEDVPDARKCACASHVAKVAEFFQGVDVIVNASSVEDIDAGAIGQRLSNGLARLSSPVLHRLRLREDENAEPVGTTYQKTDAAVEMKRINREQFWEQAKKEEELRKEEERKKALDERLRFEQERMEQERQEQEERERRYREREQQIEEHRRKQQTLEAEEAKRRLKEQSIFGDHRDEEEETHMKKSESEVEEAAAIIAQRPDNPREFFKQQERVASASAGSCDVPSPFNHRPGSHLDSHRRMAPTPIPTRSPSDSSTASTPVAEQIERALDEVTSSQPPPLPPPPPPAQETQEPSPILDSEETRAAAPQAWAGPMEEPPQAQAPPRGPGSPAEDLMFMESAEQAVLAAPVEPATADATEIHDAADTIETDTATADTTVANNVPPAATSLIDLWPGNGEGASTLQGEPRAPTPPSGTEVTLAEVPLLDEVAPEPLLPAGEGCATLLNFDELPEPPATFCDPEEVEGESLAAPQTPTLPSALEELEQEQEPEPHLLTNGETTQKEGTQASEGYFSQSQEEEFAQSEELCAKAPPPVFYNKPPEIDITCWDADPVPEEEEGFEGGD

Molecular target: T1, B-cell receptor-associated protein 31 (BAP31) (human (endogenous in HeLa))
Test: co-IP; HeLa cell extracts immunoprecipitated with FM-1 and an irrelevant control antibody; precipitates analysed by western blotting with antibodies to BAP31, Drebrin, M-RIP, SPECC1L and Nexilin

Molecule	binding
Nexilin (from UniProt Q0ZGT2 1-675)	binds
B1	binds
